{
  "sequences": {"note": "By UniProt entry, the sequences of proteins in these tests, tags left out. Residues count along the entry.", "UniProt P49822, residues 25-608": "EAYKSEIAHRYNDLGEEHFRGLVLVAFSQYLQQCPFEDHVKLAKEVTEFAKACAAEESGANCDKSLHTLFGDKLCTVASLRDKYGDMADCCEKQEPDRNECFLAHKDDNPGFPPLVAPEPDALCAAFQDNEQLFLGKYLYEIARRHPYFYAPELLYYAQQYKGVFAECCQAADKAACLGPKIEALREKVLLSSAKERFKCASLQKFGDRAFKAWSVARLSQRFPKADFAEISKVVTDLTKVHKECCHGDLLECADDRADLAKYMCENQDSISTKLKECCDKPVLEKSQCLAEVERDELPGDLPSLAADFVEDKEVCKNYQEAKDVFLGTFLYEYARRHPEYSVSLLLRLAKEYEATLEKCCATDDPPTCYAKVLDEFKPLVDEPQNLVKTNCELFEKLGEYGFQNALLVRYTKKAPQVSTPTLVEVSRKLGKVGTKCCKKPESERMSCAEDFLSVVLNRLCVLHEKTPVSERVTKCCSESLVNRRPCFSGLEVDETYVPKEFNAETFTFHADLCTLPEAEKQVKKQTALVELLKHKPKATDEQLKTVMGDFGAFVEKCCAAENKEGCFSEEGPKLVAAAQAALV", "UniProt P35747, residues 25-607": "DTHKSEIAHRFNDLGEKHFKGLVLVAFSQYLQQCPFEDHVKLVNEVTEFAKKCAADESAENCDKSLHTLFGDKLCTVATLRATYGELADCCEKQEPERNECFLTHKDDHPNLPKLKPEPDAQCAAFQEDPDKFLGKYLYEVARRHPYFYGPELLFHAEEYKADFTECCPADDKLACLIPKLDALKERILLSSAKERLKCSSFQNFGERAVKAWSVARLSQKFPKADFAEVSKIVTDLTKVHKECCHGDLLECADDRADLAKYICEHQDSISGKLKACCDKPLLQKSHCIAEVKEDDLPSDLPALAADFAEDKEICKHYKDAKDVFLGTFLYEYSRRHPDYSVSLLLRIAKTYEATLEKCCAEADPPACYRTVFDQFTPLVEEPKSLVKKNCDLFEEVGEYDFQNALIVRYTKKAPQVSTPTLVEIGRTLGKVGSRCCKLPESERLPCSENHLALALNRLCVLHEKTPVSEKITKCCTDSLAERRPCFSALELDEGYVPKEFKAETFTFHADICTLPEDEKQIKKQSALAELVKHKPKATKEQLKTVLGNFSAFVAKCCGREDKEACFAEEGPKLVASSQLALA"},
  "source": "patent US20240376185A1",
  "key": {"dog serum albumin (dog)": {"molecular_target": "dog serum albumin (dog) (UniProt P49822)", "experiment": "ELISA, E. coli supernatant"}, "[1]": {"molecular_target": "horse serum albumin (horse) (UniProt P35747)", "experiment": "ELISA, E. coli supernatant"}},
  "note": "No constants are given. Whether binding was seen depends on the method and setting. Some entries that bind do so weakly or less than the wild type.",
  "data": [
    {"binder": "SVA06 (VHH) VHH: QVQLQESGGRLVQAEDSLRLSCAASGRTFVSYDMGWFRQAPGKEREFVAAINWRGYTTDYVDSVKGRFFISRDIAKSTVYLQMNNLKPEDTAVYYCAARQMSGSSRYSPPGRVGYDFWGQGTQVTVSS", "values": [
      {"measurement": "binding", "setting": "dog serum albumin (dog)", "result": "binds"},
      {"measurement": "binding", "setting": "[1]", "result": "binds"}
    ]}
  ]
}
